These are yes or no findings as the source states them, for the method shown. Binding seen in cells or lysates may run through a third protein. Here binding means that the protein was enriched with, or labelled near, the bait; the list need not be complete.
Target: biotin-tagged full-length mouse ISG15 propargylamide probe (mouse) (UniProt Q64339)
Assay: affinity purification with mass spectrometry

The chains behind the UniProt entries cited, without tags or fusion partners. Residues count along the entry.
UniProt Q64339, residues 1-155: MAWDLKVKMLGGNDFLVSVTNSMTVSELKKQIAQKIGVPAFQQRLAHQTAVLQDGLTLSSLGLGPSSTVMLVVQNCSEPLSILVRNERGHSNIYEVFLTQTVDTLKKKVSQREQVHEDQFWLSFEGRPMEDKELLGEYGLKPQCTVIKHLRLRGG
UniProt Q9JMA1: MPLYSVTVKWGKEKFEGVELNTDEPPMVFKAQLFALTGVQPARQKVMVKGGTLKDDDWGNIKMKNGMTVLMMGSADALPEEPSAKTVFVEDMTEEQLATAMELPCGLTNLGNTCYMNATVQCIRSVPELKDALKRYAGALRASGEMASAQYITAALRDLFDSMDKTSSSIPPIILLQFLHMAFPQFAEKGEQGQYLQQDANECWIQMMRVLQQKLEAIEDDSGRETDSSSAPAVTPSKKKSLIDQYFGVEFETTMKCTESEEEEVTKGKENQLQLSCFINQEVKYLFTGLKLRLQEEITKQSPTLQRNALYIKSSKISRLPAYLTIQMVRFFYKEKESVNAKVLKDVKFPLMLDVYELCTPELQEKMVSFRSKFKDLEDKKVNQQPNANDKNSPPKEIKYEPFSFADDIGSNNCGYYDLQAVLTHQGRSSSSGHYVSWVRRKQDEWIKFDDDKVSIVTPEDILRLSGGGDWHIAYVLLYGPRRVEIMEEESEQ
UniProt P56399: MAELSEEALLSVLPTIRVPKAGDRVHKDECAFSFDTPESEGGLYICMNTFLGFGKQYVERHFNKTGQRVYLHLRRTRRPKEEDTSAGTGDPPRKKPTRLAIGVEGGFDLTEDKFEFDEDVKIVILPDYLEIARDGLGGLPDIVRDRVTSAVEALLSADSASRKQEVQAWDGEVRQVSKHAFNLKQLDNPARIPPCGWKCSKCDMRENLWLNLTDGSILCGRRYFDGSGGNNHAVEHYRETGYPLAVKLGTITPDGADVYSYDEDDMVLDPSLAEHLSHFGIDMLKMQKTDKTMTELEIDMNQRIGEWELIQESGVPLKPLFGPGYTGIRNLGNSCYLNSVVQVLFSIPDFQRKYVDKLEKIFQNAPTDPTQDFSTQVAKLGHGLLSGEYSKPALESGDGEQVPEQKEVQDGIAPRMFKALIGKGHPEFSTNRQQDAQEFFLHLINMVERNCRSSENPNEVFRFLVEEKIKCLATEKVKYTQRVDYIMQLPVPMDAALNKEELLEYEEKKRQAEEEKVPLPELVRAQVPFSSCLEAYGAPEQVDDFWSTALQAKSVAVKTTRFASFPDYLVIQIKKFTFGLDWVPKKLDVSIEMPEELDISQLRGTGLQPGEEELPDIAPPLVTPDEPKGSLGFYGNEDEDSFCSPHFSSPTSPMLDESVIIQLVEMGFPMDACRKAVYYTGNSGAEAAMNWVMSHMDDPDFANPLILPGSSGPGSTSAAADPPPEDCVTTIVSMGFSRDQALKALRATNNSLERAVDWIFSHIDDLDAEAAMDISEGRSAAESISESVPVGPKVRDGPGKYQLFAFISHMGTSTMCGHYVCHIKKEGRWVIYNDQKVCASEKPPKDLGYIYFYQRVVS
UniProt B1AY13: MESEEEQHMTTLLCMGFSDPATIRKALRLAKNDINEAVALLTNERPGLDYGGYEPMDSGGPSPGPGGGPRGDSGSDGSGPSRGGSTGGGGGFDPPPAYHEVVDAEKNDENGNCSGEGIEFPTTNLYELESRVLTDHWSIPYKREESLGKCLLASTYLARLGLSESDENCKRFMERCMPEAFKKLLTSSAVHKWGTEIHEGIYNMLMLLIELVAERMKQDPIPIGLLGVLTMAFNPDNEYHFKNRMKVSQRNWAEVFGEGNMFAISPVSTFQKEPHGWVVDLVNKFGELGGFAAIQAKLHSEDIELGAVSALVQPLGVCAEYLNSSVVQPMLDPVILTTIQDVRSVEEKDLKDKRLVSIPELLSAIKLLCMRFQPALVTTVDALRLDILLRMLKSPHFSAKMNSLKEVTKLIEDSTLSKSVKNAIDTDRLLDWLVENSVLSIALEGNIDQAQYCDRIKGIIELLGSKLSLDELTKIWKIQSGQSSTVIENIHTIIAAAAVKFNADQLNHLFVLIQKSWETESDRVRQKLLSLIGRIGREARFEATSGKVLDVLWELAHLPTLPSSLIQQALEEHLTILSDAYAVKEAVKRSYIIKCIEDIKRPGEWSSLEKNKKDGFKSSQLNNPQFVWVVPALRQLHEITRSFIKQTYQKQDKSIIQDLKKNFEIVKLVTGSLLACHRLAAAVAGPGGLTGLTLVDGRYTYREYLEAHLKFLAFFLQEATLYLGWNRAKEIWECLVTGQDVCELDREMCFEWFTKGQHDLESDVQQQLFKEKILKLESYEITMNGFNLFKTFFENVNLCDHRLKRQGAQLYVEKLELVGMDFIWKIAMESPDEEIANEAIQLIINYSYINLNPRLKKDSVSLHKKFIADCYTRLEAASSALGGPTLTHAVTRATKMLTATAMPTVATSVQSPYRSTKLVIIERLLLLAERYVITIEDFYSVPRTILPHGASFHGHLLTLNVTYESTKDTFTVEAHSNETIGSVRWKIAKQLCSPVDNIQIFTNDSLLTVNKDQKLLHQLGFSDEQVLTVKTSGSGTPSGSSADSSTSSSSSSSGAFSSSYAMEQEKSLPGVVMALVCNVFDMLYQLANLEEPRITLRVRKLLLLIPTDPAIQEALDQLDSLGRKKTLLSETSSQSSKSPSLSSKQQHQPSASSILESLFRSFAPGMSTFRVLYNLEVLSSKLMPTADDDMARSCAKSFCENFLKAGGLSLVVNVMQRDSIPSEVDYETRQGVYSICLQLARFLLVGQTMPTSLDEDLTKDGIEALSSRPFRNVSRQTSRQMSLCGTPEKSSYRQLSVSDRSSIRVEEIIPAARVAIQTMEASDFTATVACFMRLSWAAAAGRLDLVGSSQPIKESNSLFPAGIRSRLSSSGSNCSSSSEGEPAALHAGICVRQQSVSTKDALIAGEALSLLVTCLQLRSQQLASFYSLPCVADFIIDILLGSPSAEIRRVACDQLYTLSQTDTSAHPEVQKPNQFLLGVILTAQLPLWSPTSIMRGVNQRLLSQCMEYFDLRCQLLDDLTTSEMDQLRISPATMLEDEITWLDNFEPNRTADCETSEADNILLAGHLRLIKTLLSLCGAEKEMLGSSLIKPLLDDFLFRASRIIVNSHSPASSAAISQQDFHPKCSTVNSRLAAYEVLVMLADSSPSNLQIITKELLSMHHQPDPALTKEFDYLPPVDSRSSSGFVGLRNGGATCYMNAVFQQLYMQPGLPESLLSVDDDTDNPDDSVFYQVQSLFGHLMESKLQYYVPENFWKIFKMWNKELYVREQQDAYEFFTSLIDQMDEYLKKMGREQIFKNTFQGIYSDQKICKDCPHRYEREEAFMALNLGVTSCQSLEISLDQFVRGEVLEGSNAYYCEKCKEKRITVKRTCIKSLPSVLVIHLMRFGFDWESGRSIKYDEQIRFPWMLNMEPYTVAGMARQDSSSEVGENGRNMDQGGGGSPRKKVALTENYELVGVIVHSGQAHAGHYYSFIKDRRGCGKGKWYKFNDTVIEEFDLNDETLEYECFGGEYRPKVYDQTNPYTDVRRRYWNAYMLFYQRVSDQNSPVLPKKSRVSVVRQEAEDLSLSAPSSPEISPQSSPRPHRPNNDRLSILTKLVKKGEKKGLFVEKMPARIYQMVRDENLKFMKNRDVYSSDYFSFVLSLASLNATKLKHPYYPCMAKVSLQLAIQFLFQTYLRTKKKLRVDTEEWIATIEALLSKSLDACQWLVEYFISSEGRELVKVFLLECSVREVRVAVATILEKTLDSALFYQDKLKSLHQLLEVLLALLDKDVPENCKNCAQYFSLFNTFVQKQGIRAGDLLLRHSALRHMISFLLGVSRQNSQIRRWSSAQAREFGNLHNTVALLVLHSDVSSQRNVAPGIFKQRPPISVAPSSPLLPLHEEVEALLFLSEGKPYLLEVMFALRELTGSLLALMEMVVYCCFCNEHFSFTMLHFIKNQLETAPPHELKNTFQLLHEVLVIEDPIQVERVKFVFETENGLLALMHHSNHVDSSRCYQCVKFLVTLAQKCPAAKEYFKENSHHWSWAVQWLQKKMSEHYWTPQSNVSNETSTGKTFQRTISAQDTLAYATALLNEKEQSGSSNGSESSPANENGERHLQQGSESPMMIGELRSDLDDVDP

| binding | Substance |
| --- | --- |
| binds | USP14 (endogenous, mouse EL4 cells) (from UniProt Q9JMA1 1-493) (enzyme) |
| binds | USP5 (endogenous, mouse EL4 cells) (from UniProt P56399 1-858) (enzyme) |
| binds | USP24 (endogenous, mouse EL4 cells) (from UniProt B1AY13 1-2617) (enzyme) |

Reference: publication doi:10.1101/2024.09.06.611391
